Measurements from patent US20230348630A1.
Positions count from the first letter of the chain named. Numbers in names are those of the source. No constants are given. Whether binding was seen depends on the method and setting. A result given as binding can be weak or reduced; the word gives no strength.

B1: anti-CD3D&E antibody D1E9, full-length human IgG1 (L234A/L235A/N297A)/kappa (antibody, V domains shown)
VH: EVQLVESGGGLVQPGRSLRLSCAASGFTFDDFAMHWVRQAPGKGLEWVSGITWNSGSVGYADSVKGRFTISRDNAKKSLYLQMNSLRAEDTALYYCAKDRSGYGHYYYGMDVWGQGTTVTVAS
VL: EIVMTQSPATLSVSPGERATLSCRASTSVSHNVAWYQQKPGQAPRLLIYGASTKVTGIPARFSGSGSGTEFTLTISSLQSEDFAVYYCQHYINWPLTFGGGTKVEIKR
B2: anti-CD3D&E antibody D12A4, full-length human IgG1 (L234A/L235A/N297A)/kappa (antibody, V domains shown)
VH: B1 VH with D30G, F32Y, T52S, S55H, S57H, V58I, R100N
VL: B1 VL with T27R, H31R, V33L, V55P, I92T, T97R

Tests used:
[1] = biological target: CD3D&E protein (Cat #: CT038-H2508H, Sino Biological) (human); assay: SPR (BIAcore 8K)
[2] = biological target: CD3D&E protein (Cat #: CT038-H2508H, Sino Biological) (human); assay: ELISA, coated CD3D&E

Binder	binding [1]	binding [2]
B1	binds	binds
B2	binds	binds
